Results are given in words; binding and its absence hold for the method and conditions named. In cells and extracts the contact can be indirect. Here binding means that the protein was enriched with, or labelled near, the bait; the list need not be complete. For some of these results: No binding means not detected with the bait.
T1: NEK1 (endogenous) (human (endogenous in ARPE-19, HeLa, HEK293, U2-O-S)) (UniProt Q96PY6)
T1 sequence: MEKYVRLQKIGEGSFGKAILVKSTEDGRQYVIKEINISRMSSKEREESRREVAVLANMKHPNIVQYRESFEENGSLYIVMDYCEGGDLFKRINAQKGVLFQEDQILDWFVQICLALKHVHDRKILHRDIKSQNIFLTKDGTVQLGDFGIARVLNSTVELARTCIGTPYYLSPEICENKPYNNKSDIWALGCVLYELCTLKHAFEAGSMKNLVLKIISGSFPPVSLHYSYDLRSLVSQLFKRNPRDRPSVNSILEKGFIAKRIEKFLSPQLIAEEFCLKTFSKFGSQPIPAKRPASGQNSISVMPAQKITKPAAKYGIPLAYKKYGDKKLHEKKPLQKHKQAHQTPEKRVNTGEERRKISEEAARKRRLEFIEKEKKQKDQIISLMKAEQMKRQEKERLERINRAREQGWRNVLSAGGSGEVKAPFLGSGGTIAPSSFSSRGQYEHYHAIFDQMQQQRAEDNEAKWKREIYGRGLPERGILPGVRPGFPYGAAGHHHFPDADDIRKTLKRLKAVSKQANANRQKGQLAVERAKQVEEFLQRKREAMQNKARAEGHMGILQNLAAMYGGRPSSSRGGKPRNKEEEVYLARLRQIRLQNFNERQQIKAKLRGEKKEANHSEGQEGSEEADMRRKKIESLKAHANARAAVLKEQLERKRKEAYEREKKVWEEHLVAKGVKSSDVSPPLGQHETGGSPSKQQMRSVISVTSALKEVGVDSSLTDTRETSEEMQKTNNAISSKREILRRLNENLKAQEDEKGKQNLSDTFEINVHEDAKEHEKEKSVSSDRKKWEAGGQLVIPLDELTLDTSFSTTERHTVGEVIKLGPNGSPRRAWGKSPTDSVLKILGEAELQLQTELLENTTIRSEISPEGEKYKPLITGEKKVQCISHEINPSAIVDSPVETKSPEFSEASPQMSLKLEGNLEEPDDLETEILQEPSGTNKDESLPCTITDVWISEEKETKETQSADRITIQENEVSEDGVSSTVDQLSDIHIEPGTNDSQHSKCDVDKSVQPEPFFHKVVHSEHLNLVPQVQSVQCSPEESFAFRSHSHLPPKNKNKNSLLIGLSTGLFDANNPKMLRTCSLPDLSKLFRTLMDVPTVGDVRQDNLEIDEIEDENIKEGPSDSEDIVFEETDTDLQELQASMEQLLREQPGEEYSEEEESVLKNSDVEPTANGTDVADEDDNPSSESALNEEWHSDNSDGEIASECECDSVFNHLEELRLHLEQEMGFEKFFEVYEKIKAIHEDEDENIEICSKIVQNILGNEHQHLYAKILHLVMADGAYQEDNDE

T2: C21ORF2 (endogenous) (human (endogenous in ARPE-19, HeLa, HEK293, U2-O-S)) (UniProt O43822)
T2 sequence: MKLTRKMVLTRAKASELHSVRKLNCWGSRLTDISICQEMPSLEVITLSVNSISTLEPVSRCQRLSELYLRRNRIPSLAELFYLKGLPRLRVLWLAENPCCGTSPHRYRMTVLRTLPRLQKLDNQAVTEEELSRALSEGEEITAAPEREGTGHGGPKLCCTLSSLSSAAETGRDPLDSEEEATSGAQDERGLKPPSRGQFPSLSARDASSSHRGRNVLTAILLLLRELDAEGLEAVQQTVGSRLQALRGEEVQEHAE


Legend:
[1] = target: T1, NEK1 (endogenous) (human (endogenous in ARPE-19, HeLa, HEK293, U2-O-S)); test: affinity purification with mass spectrometry; immunoprecipitation of endogenous NEK1 or C21ORF2 from ARPE-19 parental lysates (5 mg), the respective KO cells as control; washes with PBS, 0.5% NP-40; TMT-labelled quantitative LC-MS/MS, five replicates
[2] = target: T2, C21ORF2 (endogenous) (human (endogenous in ARPE-19, HeLa, HEK293, U2-O-S)); test: as above

Molecule	binding [1]	binding [2]
C19ORF53 (from UniProt Q9UNZ5 1-99)	no binding	
COL8A1 (from UniProt P27658 28-744)	no binding	
C21ORF2 (endogenous) (protein, UniProt O43822-1 1-256) MKLTRKMVLTRAKASELHSVRKLNCWGSRLTDISICQEMPSLEVITLSVNSISTLEPVSRCQRLSELYLRRNRIPSLAELFYLKGLPRLRVLWLAENPCCGTSPHRYRMTVLRTLPRLQKLDNQAVTEEELSRALSEGEEITAAPEREGTGHGGPKLCCTLSSLSSAAETGRDPLDSEEEATSGAQDERGLKPPSRGQFPSLSARDASSSHRGRNVLTAILLLLRELDAEGLEAVQQTVGSRLQALRGEEVQEHAE	binds	
NEK1 (endogenous) (protein, UniProt Q96PY6-3 1-1286) MEKYVRLQKIGEGSFGKAILVKSTEDGRQYVIKEINISRMSSKEREESRREVAVLANMKHPNIVQYRESFEENGSLYIVMDYCEGGDLFKRINAQKGVLFQEDQILDWFVQICLALKHVHDRKILHRDIKSQNIFLTKDGTVQLGDFGIARVLNSTVELARTCIGTPYYLSPEICENKPYNNKSDIWALGCVLYELCTLKHAFEAGSMKNLVLKIISGSFPPVSLHYSYDLRSLVSQLFKRNPRDRPSVNSILEKGFIAKRIEKFLSPQLIAEEFCLKTFSKFGSQPIPAKRPASGQNSISVMPAQKITKPAAKYGIPLAYKKYGDKKLHEKKPLQKHKQAHQTPEKRVNTGEERRKISEEAARKRRLEFIEKEKKQKDQIISLMKAEQMKRQEKERLERINRAREQGWRNVLSAGGSGEVKAPFLGSGGTIAPSSFSSRGQYEHYHAIFDQMQQQRAEDNEAKWKREIYGRGLPERGILPGVRPGFPYGAAGHHHFPDADDIRKTLKRLKAVSKQANANRQKGQLAVERAKQVEEFLQRKREAMQNKARAEGHMGILQNLAAMYGGRPSSSRGGKPRNKEEEVYLARLRQIRLQNFNERQQIKAKLRGEKKEANHSEGQEGSEEADMRRKKIESLKAHANARAAVLKEQLERKRKEAYEREKKVWEEHLVAKGVKSSDVSPPLGQHETGGSPSKQQMRSVISVTSALKEVGVDSSLTDTRETSEEMQKTNNAISSKREILRRLNENLKAQEDEKGKQNLSDTFEINVHEDAKEHEKEKSVSSDRKKWEAGGQLVIPLDELTLDTSFSTTERHTVGEVIKLGPNGSPRRAWGKSPTDSVLKILGEAELQLQTELLENTTIRSEISPEGEKYKPLITGEKKVQCISHEINPSAIVDSPVETKSPEFSEASPQMSLKLEGNLEEPDDLETEILQEPSGTNKDESLPCTITDVWISEEKETKETQSADRITIQENEVSEDGVSSTVDQLSDIHIEPGTNDSQHSKCDVDKSVQPEPFFHKVVHSEHLNLVPQVQSVQCSPEESFAFRSHSHLPPKNKNKNSLLIGLSTGLFDANNPKMLRTCSLPDLSKLFRTLMDVPTVGDVRQDNLEIDEIEDENIKEGPSDSEDIVFEETDTDLQELQASMEQLLREQPGEEYSEEEESVLKNSDVEPTANGTDVADEDDNPSSESALNEEWHSDNSDGEIASECECDSVFNHLEELRLHLEQEMGFEKFFEVYEKIKAIHEDEDENIEICSKIVQNILGNEHQHLYAKILHLVMADGAYQEDNDE		binds

Source: article PMC10185812
